Measured values from patent US20230416341A1, “IMPROVED THROMBIN INHIBITORS FOR TREATMENT OF THROMBOEMBOLIC CONDITIONS” (priority 2020, published 2023).
Some entries share one result that the patent states for a list of compounds.

How the values were obtained:
mouse plasma = assay: In vitro activated partial thromboplastin time (aPTT) dose-response in mouse plasma; type: biochemical; details: at concentrations above about 12 μg/mL
[1] = Blood loss after 3 mm tail transection (haemoglobin assay); type: in vivo, mouse; details: 1 mg/kg
Description: “Blood loss” generally refers excessive bleeding or haemorrhage. Minor haemorrhage refers to clinically insignificant bleeding. Major haemorrhage refers to internal bleeding or when the individual loses sufficient amounts of blood to cause a haemodynamic instability. Blood loss may be measured clinically by measuring blood pressure, pulse rate, haemoglobin levels, urea levels in the blood, and/or by imaging. Indicators of major haemorrhage will be clear to a person skilled in the art. Blood loss may also be determined experimentally for example by measuring the total volume of blood collected from a mouse tail transection and may be quantified by measurement of haemoglobin (mg/dL) present in the total volume of blood lost during a specified observation period (for example 20 minutes). Total haemoglobin may be assessed via a commercially available Haemoglobin colorimetric assay kit (Cat #MAK115; Sigma-Aldrich).
Blood loss was assessed by carrying out a 3 mm tail transection (lop) in rodents, to assess blood loss following compound/drug administration. Tail lop was performed using a standard transection 3 mm from the tip of the tail (Schoenwaelder et al, 2011, Blood). The tail was immediately immersed in pre-warmed sterile saline (37° C.) and time to bleeding cessation and rebleeding events monitored for 30 minutes following transection. […]

hirudin
AAPT (clotting time) (mouse plasma): greater than 200 s | blood loss (haemoglobin) [1]: over 2000 mg/dL
